Assay results from patent US9296810 (Novartis, dated 2016).
These are yes or no findings as the source states them, for the method shown. Some results given as binding are weak or reduced against the parent protein; the word gives no strength. For some of these results: Sequences can lack the tags named with a protein. Blank lines part the entries; values can stand above or below the binder they belong to.

By UniProt entry, the sequences of proteins in these tests, tags left out. Residues count along the entry.
UniProt P35968, residues 20-764: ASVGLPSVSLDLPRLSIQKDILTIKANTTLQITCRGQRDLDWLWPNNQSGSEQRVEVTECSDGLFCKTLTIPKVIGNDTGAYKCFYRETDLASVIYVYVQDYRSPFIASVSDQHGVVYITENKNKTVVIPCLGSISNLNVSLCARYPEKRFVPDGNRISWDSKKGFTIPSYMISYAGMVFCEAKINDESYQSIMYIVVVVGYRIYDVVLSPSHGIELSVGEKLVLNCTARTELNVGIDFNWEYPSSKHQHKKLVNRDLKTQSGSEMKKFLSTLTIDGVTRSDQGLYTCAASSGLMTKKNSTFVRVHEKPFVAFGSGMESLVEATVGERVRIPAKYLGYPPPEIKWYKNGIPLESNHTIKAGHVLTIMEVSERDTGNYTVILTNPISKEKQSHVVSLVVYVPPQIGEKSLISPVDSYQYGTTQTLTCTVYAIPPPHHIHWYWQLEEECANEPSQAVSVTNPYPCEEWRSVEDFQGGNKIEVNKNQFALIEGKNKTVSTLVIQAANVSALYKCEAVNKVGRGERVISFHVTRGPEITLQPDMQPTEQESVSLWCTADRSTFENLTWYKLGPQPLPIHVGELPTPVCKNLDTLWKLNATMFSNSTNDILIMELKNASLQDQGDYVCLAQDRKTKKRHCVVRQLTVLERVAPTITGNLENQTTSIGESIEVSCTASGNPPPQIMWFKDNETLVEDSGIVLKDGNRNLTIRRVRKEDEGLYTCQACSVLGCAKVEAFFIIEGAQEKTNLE

How the values were obtained:
VEGFR2-Fc fusion protein [1] = target: VEGFR2-Fc fusion protein (UniProt P35968); test: sandwich ELISA (FIG. 13)
VEGFR2-Fc fusion protein [2] = target: VEGFR2-Fc fusion protein (UniProt P35968); test: sandwich ELISA: VEGFR2-Fc immobilized, cleared lysate, then HSA, anti-HSA-HRP detection
VEGFR2-Fc fusion protein [3] = target: VEGFR2-Fc fusion protein (UniProt P35968); test: sandwich ELISA
VEGFR2-Fc fusion protein [4] = target: VEGFR2-Fc fusion protein (UniProt P35968); test: Biacore (FIG. 14)
VEGFR2-Fc fusion protein [5] = target: VEGFR2-Fc fusion protein (UniProt P35968); test: Biacore T100, VEGFR2-huFc captured by anti-hu IgG Fc antibody on CM5, clone 87 at 100 nM and 200 nM
VEGFR2-Fc fusion protein [6] = target: VEGFR2-Fc fusion protein (UniProt P35968); test: Biacore T100
hen egg white lysozyme = target: T1, hen egg white lysozyme (hen, UniProt P00698 19-147, biotinylated (HEL-b); sites not stated); test: yeast display selection
T1 construct: also called lyzozyme; HEL-b (biotinylated)

binding (VEGFR2-Fc fusion protein [1]): binds
binding (VEGFR2-Fc fusion protein [2]): binds
binding (VEGFR2-Fc fusion protein [3]): binds
binding (VEGFR2-Fc fusion protein [4]): binds
binding (VEGFR2-Fc fusion protein [5]): binds
B1: clone 87 (multispecific Fn3-based binding molecule; VEGFR2 top side binder fused to bottom side sequence 8 from FIG. 7 with GS linker) (designed binder)
chain: MGVSDVPRDLEVVAATPTSLLISWRHPHFPTRYYRITYGETGGNSPVQEFTVPLQPPLATISGLKPGVDYTITVYAVTKERNGRELFTPISINYRTGGGGSGGGGSVSDVPRDLEVVAATPTSLLISWDAPAVTVRYYRITYGRTDAKSTRKEFTVPGSKSTATIGELKRGRDYTITVYAVTGRGDSPASSKPISINYRPEKENLYFQGHHHHHH
notes: ELISA used cleared lysate, Biacore soluble protein; also called Fibronectin clone 87 (multispecific)

binding (VEGFR2-Fc fusion protein [6]): binds
binding (VEGFR2-Fc fusion protein [1]): binds
binding (VEGFR2-Fc fusion protein [2]): binds
binding (VEGFR2-Fc fusion protein [3]): binds
B2: clone 89 (bispecific Fn3-based binding molecule; VEGFR2/Bottom side SEQ ID NO: 8 merged molecule) (designed binder)
chain: MGVSDVPRDLEVVAATPTSLLISWRHPHFPTRYYRITYGRTDAKSTRKEFTVPLQPPLATIGELKRGRDYTITVYAVTKERNGRELFTPISINYRPEKENLYFQGHHHHHH
notes: the entry ends in ENLYFQG-HHHHHH; also called VEGFR2-HAS; single bispecific fibronectin molecule

binding (hen egg white lysozyme): binds
B3: SEQ ID NO 81 (designed binder)
chain: VSDVPRDLEVVAATPTSLLISWDAPAVTVRYYRITYGESHHYGPQEFTVPGSKSTATISLLGAHVDYTITVYAVTGRGESPASSKPISINYHGLY
